The target of this assay is FLAG-APEX2-BAX, Q07812. The assay is described as follows: proximity labelling; APEX2 fusion in HeLa cells, apoptosis induced with 1 uM staurosporine for 3 h; biotin-phenol and H2O2; streptavidin beads from RIPA lysate; immunoblot for BAX and BAK. The settings on record: remark: other sources report otherwise.

These are yes or no findings as the source states them, for the method shown. In cells and extracts the contact can be indirect. These calls come from enrichment with a bait or labelling near it, and not all partners need be listed.

B1: BAK (endogenous, HeLa cells), Q16611 1-211 (protein)
chain: MASGQGPGPPRQECGEPALPSASEEQVAQDTEEVFRSYVFYRHQQEQEAEGVAAPADPEMVTLPLQPSSTMGQVGRQLAIIGDDINRRYDSEFQTMLQHLQPTAENAYEYFTKIATSLFESGINWGRVVALLGFGYRLALHVYQHGLTGFLGQVTRFVVDFMLHHCIARWIAQRGGWVAALNLGNGPILNVLVVLGVVLLGQFVVRRFFKS
B1: the binding result is on record as “binds”.

The record behind these values is publication PMC8901441.
